Drawing on US20180371433A1 (UNIVERSITY OF FLORIDA RESEARCH FOUNDATION, published 2018), this text covers binding for one molecule.

Results are given in words; binding and its absence hold for the method and conditions named. Binding seen in cells or lysates may run through a third protein. Some entries that bind do so weakly or less than the wild type. Sequences can lack the tags named with a protein.

The assay has as its target T1, genome-encoded HvPPA (Haloferax volcanii) (UniProt D4GT97).
T1 sequence: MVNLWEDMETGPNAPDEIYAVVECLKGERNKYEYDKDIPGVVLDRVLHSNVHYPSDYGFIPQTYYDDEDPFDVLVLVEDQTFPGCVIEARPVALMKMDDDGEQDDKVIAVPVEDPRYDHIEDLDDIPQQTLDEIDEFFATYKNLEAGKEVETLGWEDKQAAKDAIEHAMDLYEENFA
As to the kind of experiment: co-purification by Ni2+ IMAC and SEC, seen on SDS-PAGE.

B1: HvPPA with an N-terminal poly-histidine tag (His6-HvPPA) linked with a thrombin-cleavage site (enzyme)
chain: MVNLWEDMETGPNAPDEIYAVVECLKGERNKYEYDKDIPGVVLDRVLHSNVHYPSDYGFIPQTYYDDEDPFDVLVLVEDQTFPGCVIEARPVALMKMDDDGEQDDKVIAVPVEDPRYDHIEDLDDIPQQTLDEIDEFFATYKNLEAGKEVETLGWEDKQAAKDAIEHAMDLYEENFA
notes: Expressed in Hfx. volcanii H26-pJAM2920; Purified by Ni2+ IMAC and SEC as homo-hexamers (~134 kDa) and homo-trimers (~64 kDa); also called HVO_0729; Haloferax volcanii inorganic pyrophosphatase; not shown: N-terminal His6 tag and thrombin-cleavage site from vector pJAM503
Turning to B1, the binding entry is listed as “binds”.
